These are yes or no findings as the source states them, for the method shown. In cells and extracts the contact can be indirect. Some results given as binding are weak or reduced against the parent protein; the word gives no strength.
Columns and labels:
[1] = target: hSUN2-FLAG (human SUN2 with a C-terminal FLAG tag) (human) (UniProt Q9UH99); assay: co-IP; HEK293T cells transfected separately with hSUN2-FLAG or INF2-CAAX; lysates mixed and incubated with anti-FLAG M2 beads 150 min at 4 °C; Co-IP buffer 20 mM Tris pH 7.5, 150 mM NaCl, 5 mM CaCl2, 1% glycerol, 1% NP-40, 0.05% SDS; INF2 detected by immunoblot with anti-INF2
[2] = target: T1, SUN2 (endogenous, NIH3T3 cells) (mouse (endogenous in NIH3T3)) (UniProt Q8BJS4); assay: proximity ligation; Duolink PLA on endogenous proteins in NIH3T3 cells, pre-extracted in CSK buffer and fixed in ethanol; cells untreated, 1 µM A23187 for 1 min, pre-treated with 10 µM BAPTA-AM for 30 min, or siSUN2; mouse anti-SUN2 with a rabbit antibody to the partner
T1 sequence: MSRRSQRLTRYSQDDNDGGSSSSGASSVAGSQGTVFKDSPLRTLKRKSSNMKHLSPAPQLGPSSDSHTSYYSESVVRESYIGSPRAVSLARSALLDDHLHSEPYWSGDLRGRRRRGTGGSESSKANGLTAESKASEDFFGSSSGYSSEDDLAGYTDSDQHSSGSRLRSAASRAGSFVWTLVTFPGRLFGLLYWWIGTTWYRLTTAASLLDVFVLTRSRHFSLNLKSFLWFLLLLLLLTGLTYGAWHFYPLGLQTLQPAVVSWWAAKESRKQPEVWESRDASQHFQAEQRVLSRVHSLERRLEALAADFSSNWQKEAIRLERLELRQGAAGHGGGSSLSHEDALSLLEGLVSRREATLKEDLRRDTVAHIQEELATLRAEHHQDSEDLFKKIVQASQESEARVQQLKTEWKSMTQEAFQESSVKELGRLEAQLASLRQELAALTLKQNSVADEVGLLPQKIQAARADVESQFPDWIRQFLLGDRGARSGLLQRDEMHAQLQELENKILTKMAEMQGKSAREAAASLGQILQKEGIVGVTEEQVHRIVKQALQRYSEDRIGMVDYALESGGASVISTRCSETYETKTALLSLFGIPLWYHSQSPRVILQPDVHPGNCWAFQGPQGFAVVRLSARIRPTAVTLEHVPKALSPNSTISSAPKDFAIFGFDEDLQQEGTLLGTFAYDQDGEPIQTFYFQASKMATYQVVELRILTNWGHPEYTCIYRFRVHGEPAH

Amino acid sequences for entries named in this document (tags omitted). A change or cut given only in a name is not applied to a line headed by its entry.
UniProt Q9UH99: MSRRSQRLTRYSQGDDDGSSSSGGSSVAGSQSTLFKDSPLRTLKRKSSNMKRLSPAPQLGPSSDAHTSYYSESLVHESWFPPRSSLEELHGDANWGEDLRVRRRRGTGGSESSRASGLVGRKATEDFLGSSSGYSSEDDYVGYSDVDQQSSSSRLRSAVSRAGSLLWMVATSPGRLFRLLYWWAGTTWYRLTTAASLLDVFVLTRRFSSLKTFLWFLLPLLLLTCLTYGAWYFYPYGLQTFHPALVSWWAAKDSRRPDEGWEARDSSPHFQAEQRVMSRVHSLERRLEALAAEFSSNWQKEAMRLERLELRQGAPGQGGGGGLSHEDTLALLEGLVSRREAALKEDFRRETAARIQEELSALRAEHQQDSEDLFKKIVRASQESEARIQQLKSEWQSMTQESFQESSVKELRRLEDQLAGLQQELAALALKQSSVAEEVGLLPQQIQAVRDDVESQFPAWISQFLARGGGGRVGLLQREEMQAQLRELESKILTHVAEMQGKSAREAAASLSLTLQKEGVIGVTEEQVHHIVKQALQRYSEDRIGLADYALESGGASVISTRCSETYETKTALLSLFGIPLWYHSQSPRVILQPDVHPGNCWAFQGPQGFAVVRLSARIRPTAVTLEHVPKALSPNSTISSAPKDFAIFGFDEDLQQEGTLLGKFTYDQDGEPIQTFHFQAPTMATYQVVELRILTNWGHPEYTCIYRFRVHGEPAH
UniProt Q27J81: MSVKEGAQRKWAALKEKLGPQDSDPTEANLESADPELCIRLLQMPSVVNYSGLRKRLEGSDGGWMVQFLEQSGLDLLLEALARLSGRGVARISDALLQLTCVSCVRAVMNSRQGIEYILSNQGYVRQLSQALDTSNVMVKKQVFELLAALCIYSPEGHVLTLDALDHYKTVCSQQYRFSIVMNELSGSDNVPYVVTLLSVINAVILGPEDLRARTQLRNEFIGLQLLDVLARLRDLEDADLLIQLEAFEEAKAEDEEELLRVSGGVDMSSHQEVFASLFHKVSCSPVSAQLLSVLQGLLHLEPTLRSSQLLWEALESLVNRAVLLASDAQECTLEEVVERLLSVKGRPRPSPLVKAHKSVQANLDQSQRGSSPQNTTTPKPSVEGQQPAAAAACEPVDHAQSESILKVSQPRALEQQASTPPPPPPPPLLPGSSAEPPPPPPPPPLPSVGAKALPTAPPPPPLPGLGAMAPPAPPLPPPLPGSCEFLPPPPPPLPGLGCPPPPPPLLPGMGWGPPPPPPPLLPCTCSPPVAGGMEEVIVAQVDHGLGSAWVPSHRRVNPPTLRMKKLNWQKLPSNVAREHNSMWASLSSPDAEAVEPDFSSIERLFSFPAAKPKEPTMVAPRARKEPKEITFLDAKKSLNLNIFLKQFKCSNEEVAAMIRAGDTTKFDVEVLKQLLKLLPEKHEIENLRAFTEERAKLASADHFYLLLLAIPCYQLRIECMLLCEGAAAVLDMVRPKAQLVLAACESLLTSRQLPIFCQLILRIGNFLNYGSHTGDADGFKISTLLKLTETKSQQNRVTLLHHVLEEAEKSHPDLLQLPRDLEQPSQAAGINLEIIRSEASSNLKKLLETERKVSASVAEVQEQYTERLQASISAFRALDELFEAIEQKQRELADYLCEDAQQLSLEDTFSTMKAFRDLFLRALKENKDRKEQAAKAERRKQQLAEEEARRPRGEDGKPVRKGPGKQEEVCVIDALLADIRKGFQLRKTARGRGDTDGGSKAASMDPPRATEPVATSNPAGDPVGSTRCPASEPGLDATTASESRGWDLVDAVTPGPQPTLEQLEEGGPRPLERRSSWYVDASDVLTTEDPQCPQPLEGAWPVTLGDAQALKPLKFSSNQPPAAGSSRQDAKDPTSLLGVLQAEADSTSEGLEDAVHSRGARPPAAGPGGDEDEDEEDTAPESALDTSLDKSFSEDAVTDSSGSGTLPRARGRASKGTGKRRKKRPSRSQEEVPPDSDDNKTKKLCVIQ
UniProt Q0GNC1: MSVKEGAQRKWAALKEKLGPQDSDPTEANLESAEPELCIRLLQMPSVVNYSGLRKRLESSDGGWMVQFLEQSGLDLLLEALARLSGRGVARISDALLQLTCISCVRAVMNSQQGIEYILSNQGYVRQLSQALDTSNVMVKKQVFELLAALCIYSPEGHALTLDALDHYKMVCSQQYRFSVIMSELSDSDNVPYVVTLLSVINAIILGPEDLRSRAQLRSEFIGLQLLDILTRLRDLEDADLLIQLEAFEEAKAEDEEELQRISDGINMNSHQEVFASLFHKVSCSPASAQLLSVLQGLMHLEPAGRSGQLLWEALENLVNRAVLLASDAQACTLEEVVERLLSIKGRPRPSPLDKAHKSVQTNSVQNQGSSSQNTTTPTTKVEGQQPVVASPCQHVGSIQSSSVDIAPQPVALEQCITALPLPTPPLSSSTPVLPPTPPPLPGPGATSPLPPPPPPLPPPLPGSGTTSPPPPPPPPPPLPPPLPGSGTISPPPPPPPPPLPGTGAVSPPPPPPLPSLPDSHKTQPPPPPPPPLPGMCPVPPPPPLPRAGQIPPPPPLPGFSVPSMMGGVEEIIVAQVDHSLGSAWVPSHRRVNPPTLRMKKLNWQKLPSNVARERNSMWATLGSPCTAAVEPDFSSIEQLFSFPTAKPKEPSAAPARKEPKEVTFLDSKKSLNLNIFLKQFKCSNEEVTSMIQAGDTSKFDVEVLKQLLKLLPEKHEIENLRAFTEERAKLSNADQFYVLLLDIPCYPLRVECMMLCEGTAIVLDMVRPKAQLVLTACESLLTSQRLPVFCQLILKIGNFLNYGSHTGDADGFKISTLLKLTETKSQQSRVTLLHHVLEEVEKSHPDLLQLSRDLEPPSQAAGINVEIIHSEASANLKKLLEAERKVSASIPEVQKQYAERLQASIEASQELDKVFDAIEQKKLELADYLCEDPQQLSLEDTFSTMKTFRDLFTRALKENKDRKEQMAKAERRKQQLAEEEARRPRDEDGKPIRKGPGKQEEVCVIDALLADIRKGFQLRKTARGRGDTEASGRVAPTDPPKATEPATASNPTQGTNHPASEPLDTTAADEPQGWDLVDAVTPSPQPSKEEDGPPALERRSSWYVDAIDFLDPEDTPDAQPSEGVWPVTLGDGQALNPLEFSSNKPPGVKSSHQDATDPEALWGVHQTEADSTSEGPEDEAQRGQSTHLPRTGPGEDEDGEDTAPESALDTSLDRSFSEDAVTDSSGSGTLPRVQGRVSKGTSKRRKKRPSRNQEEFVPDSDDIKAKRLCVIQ

| Substance | binding [1] | binding [2] |
| --- | --- | --- |
| human INF2-CAAX (inverted formin 2, prenylated CAAX splice variant) (from UniProt Q27J81 1-1249) | binds | – |
| INF2 (inverted formin 2; endogenous, NIH3T3 cells) (from UniProt Q0GNC1 1-1273) | – | binds |

From publication PMC11549082
